# Experimental data reported in the supplement of paper PMC8728848.
# The list shows a part of the results.
# What was measured:
# Experiment in all cases: glycan array binding signal (z-score within array); higher = stronger binding
# Conditions in all cases: glycan notation: IUPAC condensed, linker removed; mutation: Y54A
# Neu5Ac(a2-3)Gal = biological target: Neu5Ac(a2-3)Gal
# Method in brief: (§1)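 The Consortium for Functional Glycomics database supplied 3228 glycan arrays, of which those lacking an available protein sequence were dropped. The binding signal, a within-array Z-score, was averaged across arrays of the same protein sequence and across linkers. Negative scores can be read as non-binding.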
# [1] = biological target: Neu5Ac(a2-3)Gal(b1-3)GalNAc
# Method in brief: as §1
# [2] = biological target: Neu5Ac(a2-3)Gal(b1-3)GalNAc(b1-3)Gal(a1-4)Gal(b1-4)Glc
# Method in brief: as §1
# [3] = biological target: Neu5Ac(a2-3)Gal(b1-3)GalNAc(b1-4)Gal(b1-4)Glc
# Method in brief: as §1
# [4] = biological target: Neu5Ac(a2-3)Gal(b1-3)GalNAc(b1-4)[Neu5Ac(a2-3)]Gal(b1-4)Glc
# Method in brief: as §1
# [5] = biological target: Neu5Ac(a2-3)Gal(b1-3)GalNAc(b1-4)[Neu5Ac(a2-8)Neu5Ac(a2-3)]Gal(b1-4)Glc
# Method in brief: as §1
# [6] = biological target: Neu5Ac(a2-3)Gal(b1-3)GalNAc6S
# Method in brief: as §1
# [7] = biological target: Neu5Ac(a2-3)Gal(b1-3)GlcNAc
# Method in brief: as §1
# [8] = biological target: Neu5Ac(a2-3)Gal(b1-3)GlcNAc(b1-2)Man
# Method in brief: as §1
# [9] = biological target: Neu5Ac(a2-3)Gal(b1-3)GlcNAc(b1-2)Man(a1-3)[GlcNAc(b1-4)][Neu5Ac(a2-3)Gal(b1-3)GlcNAc(b1-2)Man(a1-6)]Man(b1-4)GlcNAc(b1-4)GlcNAc
# Method in brief: as §1
# [10] = biological target: Neu5Ac(a2-3)Gal(b1-3)GlcNAc(b1-2)Man(a1-3)[Neu5Ac(a2-3)Gal(b1-3)GlcNAc(b1-2)Man(a1-6)]Man(b1-4)GlcNAc(b1-4)GlcNAc
# Method in brief: as §1
# [11] = biological target: Neu5Ac(a2-3)Gal(b1-3)GlcNAc(b1-2)[Neu5Ac(a2-3)Gal(b1-3)GlcNAc(b1-4)]Man(a1-6)[Neu5Ac(a2-3)Gal(b1-3)GlcNAc(b1-2)Man(a1-3)]Man(b1-4)GlcNAc(b1-4)GlcNAc
# Method in brief: as §1
# [12] = biological target: Neu5Ac(a2-3)Gal(b1-3)GlcNAc(b1-3)Gal(b1-3)GlcNAc
# Method in brief: as §1
# [13] = biological target: Neu5Ac(a2-3)Gal(b1-3)GlcNAc(b1-3)Gal(b1-4)GlcNAc
# Method in brief: as §1
# [14] = biological target: Neu5Ac(a2-3)Gal(b1-3)GlcNAc(b1-3)GalNAc
# Method in brief: as §1
# [15] = biological target: Neu5Ac(a2-3)Gal(b1-3)GlcNAc(b1-6)GalNAc
# Method in brief: as §1
# [16] = biological target: Neu5Ac(a2-3)Gal(b1-3)GlcNAc6S
# Method in brief: as §1
# [17] = biological target: Neu5Ac(a2-3)Gal(b1-3)[Fuc(a1-4)]GlcNAc
# Method in brief: as §1
# [18] = biological target: Neu5Ac(a2-3)Gal(b1-3)[Fuc(a1-4)]GlcNAc(b1-3)Gal(b1-3)[Fuc(a1-4)]GlcNAc
# Method in brief: as §1
# [19] = biological target: Neu5Ac(a2-3)Gal(b1-3)[Fuc(a1-4)]GlcNAc(b1-3)Gal(b1-4)[Fuc(a1-3)]GlcNAc
# Method in brief: as §1
# [20] = biological target: Neu5Ac(a2-3)Gal(b1-3)[GlcNAc(b1-6)]GalNAc
# Method in brief: as §1
# [21] = biological target: Neu5Ac(a2-3)Gal(b1-3)[Neu5Ac(a2-6)]GalNAc
# Method in brief: as §1
# [22] = biological target: Neu5Ac(a2-3)Gal(b1-3)[Neu5Ac(a2-6)]GlcNAc(b1-3)[Fuc(a1-3)[Gal(b1-4)]GlcNAc(b1-6)]Gal(b1-4)Glc
# Method in brief: as §1
# [23] = biological target: Neu5Ac(a2-3)Gal(b1-3)]Neu5Ac(a2-3)Gal(b1-4)]GlcNAc
# Method in brief: as §1
# Neu5Ac(a2-3)Gal(b1-4)Glc = biological target: Neu5Ac(a2-3)Gal(b1-4)Glc
# Method in brief: as §1
# [24] = biological target: Neu5Ac(a2-3)Gal(b1-4)GlcNAc
# Method in brief: as §1
# [25] = biological target: Neu5Ac(a2-3)Gal(b1-4)GlcNAc(b1-2)Man
# Method in brief: as §1
# [26] = biological target: Neu5Ac(a2-3)Gal(b1-4)GlcNAc(b1-2)Man(a1-3)[GlcNAc(b1-4)][Neu5Ac(a2-3)Gal(b1-4)GlcNAc(b1-2)Man(a1-6)]Man(b1-4)GlcNAc(b1-4)GlcNAc
# Method in brief: as §1
# [27] = biological target: Neu5Ac(a2-3)Gal(b1-4)GlcNAc(b1-2)Man(a1-3)[Neu5Ac(a2-3)Gal(b1-4)GlcNAc(b1-2)Man(a1-6)]Man(b1-4)GlcNAc(b1-4)GlcNAc
# Method in brief: as §1
# [28] = biological target: Neu5Ac(a2-3)Gal(b1-4)GlcNAc(b1-2)Man(a1-3)[Neu5Ac(a2-3)Gal(b1-4)GlcNAc(b1-2)Man(a1-6)]Man(b1-4)GlcNAc(b1-4)[Fuc(a1-6)]GlcNAc
# Method in brief: as §1
# [29] = biological target: Neu5Ac(a2-3)Gal(b1-4)GlcNAc(b1-2)Man(a1-3)[Neu5Ac(a2-6)Gal(b1-4)GlcNAc(b1-2)Man(a1-6)]Man(b1-4)GlcNAc(b1-4)GlcNAc
# Method in brief: as §1
# [30] = biological target: Neu5Ac(a2-3)Gal(b1-4)GlcNAc(b1-2)[Neu5Ac(a2-3)Gal(b1-4)GlcNAc(b1-4)]Man(a1-3)[GlcNAc(b1-4)][Neu5Ac(a2-3)Gal(b1-4)GlcNAc(b1-2)[Neu5Ac(a2-3)Gal(b1-4)GlcNAc(b1-6)]Man(a1-6)]Man(b1-4)GlcNAc(b1-4)GlcNAc
# Method in brief: as §1
# [31] = biological target: Neu5Ac(a2-3)Gal(b1-4)GlcNAc(b1-2)[Neu5Ac(a2-3)Gal(b1-4)GlcNAc(b1-4)]Man(a1-3)[GlcNAc(b1-4)][Neu5Ac(a2-3)Gal(b1-4)GlcNAc(b1-4)Man(a1-6)]Man(b1-4)GlcNAc(b1-4)GlcNAc
# Method in brief: as §1
# [32] = biological target: Neu5Ac(a2-3)Gal(b1-4)GlcNAc(b1-2)[Neu5Ac(a2-3)Gal(b1-4)GlcNAc(b1-6)]Man(a1-6)[Neu5Ac(a2-3)Gal(b1-4)GlcNAc(b1-2)Man(a1-3)][GlcNAc(b1-4)]Man(b1-4)GlcNAc(b1-4)GlcNAc
# Method in brief: as §1
# [33] = biological target: Neu5Ac(a2-3)Gal(b1-4)GlcNAc(b1-3)Gal
# Method in brief: as §1
# [34] = biological target: Neu5Ac(a2-3)Gal(b1-4)GlcNAc(b1-3)Gal(b1-3)GlcNAc
# Method in brief: as §1
# [35] = biological target: Neu5Ac(a2-3)Gal(b1-4)GlcNAc(b1-3)Gal(b1-4)GlcNAc
# Method in brief: as §1
# [36] = biological target: Neu5Ac(a2-3)Gal(b1-4)GlcNAc(b1-3)Gal(b1-4)GlcNAc(b1-2)Man(a1-3)[Neu5Ac(a2-3)Gal(b1-4)GlcNAc(b1-3)Gal(b1-4)GlcNAc(b1-2)Man(a1-6)]Man(b1-4)GlcNAc(b1-4)GlcNAc
# Method in brief: as §1
# [37] = biological target: Neu5Ac(a2-3)Gal(b1-4)GlcNAc(b1-3)Gal(b1-4)GlcNAc(b1-3)Gal(b1-4)GlcNAc
# Method in brief: as §1
# [38] = biological target: Neu5Ac(a2-3)Gal(b1-4)GlcNAc(b1-3)Gal(b1-4)GlcNAc(b1-3)Gal(b1-4)GlcNAc(b1-2)Man(a1-3)[Neu5Ac(a2-3)Gal(b1-4)GlcNAc(b1-3)Gal(b1-4)GlcNAc(b1-3)Gal(b1-4)GlcNAc(b1-2)Man(a1-6)]GalNAc
# Method in brief: as §1
# [39] = biological target: Neu5Ac(a2-3)Gal(b1-4)GlcNAc(b1-3)Gal(b1-4)GlcNAc(b1-3)GalNAc
# Method in brief: as §1
# [40] = biological target: Neu5Ac(a2-3)Gal(b1-4)GlcNAc(b1-3)Gal(b1-4)GlcNAc(b1-3)[Neu5Ac(a2-3)Gal(b1-4)GlcNAc(b1-3)Gal(b1-4)GlcNAc(b1-6)]GalNAc
# Method in brief: as §1
# [41] = biological target: Neu5Ac(a2-3)Gal(b1-4)GlcNAc(b1-3)Gal(b1-4)GlcNAc(b1-6)[Gal(b1-3)]GalNAc
# Method in brief: as §1
# [42] = biological target: Neu5Ac(a2-3)Gal(b1-4)GlcNAc(b1-3)Gal(b1-4)[Fuc(a1-3)]GlcNAc
# Method in brief: as §1
# [43] = biological target: Neu5Ac(a2-3)Gal(b1-4)GlcNAc(b1-3)GalNAc
# Method in brief: as §1
binder,measurement,setting,value
"CBP21 (Serratia marcescens), O83009 (protein) MNKTSRTLLSLGLLSAAMFGVSQQANAHGYVESPASRAYQCKLQLNTQCGSVQAEPQSVEGLKGFPQAGPADGHIASADKSTFFELDQQTPTRWNKLNLKTGPNSFTWKLTARHSTTSWRYFITKPNWDASQPLTRASFDLTPFCQFNDGGAIPAAQVTHQCNIPADRSGSHVILAVWDIADTANAFYQAIDVNLSK",glycan array binding signal (z-score),Neu5Ac(a2-3)Gal,-0.008
same,glycan array binding signal (z-score),[1],-0.502
same,glycan array binding signal (z-score),[2],-0.583
same,glycan array binding signal (z-score),[3],-0.205
same,glycan array binding signal (z-score),[4],-0.465
same,glycan array binding signal (z-score),[5],-0.853
same,glycan array binding signal (z-score),[6],5.86
same,glycan array binding signal (z-score),[7],-0.515
same,glycan array binding signal (z-score),[8],-0.435
same,glycan array binding signal (z-score),[9],-0.043
same,glycan array binding signal (z-score),[10],-0.307
same,glycan array binding signal (z-score),[11],5.4
same,glycan array binding signal (z-score),[12],-0.488
same,glycan array binding signal (z-score),[13],1.79
same,glycan array binding signal (z-score),[14],-0.088
same,glycan array binding signal (z-score),[15],0.054
same,glycan array binding signal (z-score),[16],-0.121
same,glycan array binding signal (z-score),[17],-0.078
same,glycan array binding signal (z-score),[18],-0.29
same,glycan array binding signal (z-score),[19],0.202
same,glycan array binding signal (z-score),[20],-0.865
same,glycan array binding signal (z-score),[21],3.97
same,glycan array binding signal (z-score),[22],-0.764
same,glycan array binding signal (z-score),[23],0.743
same,glycan array binding signal (z-score),Neu5Ac(a2-3)Gal(b1-4)Glc,0.821
same,glycan array binding signal (z-score),[24],-0.373
same,glycan array binding signal (z-score),[25],-0.035
same,glycan array binding signal (z-score),[26],-0.561
same,glycan array binding signal (z-score),[27],-0.458
same,glycan array binding signal (z-score),[28],0.14
same,glycan array binding signal (z-score),[29],0.681
same,glycan array binding signal (z-score),[30],0.538
same,glycan array binding signal (z-score),[31],-0.017
same,glycan array binding signal (z-score),[32],-0.228
same,glycan array binding signal (z-score),[33],-0.407
same,glycan array binding signal (z-score),[34],1.61
same,glycan array binding signal (z-score),[35],-0.609
same,glycan array binding signal (z-score),[36],-0.666
same,glycan array binding signal (z-score),[37],-0.695
same,glycan array binding signal (z-score),[38],-0.428
same,glycan array binding signal (z-score),[39],-0.163
same,glycan array binding signal (z-score),[40],1.5
same,glycan array binding signal (z-score),[41],-0.494
same,glycan array binding signal (z-score),[42],0.07
same,glycan array binding signal (z-score),[43],3.83

# As a working copy, some entries already given.
binder,measurement,setting,value
"CBP21 (Serratia marcescens), O83009 (protein) MNKTSRTLLSLGLLSAAMFGVSQQANAHGYVESPASRAYQCKLQLNTQCGSVQAEPQSVEGLKGFPQAGPADGHIASADKSTFFELDQQTPTRWNKLNLKTGPNSFTWKLTARHSTTSWRYFITKPNWDASQPLTRASFDLTPFCQFNDGGAIPAAQVTHQCNIPADRSGSHVILAVWDIADTANAFYQAIDVNLSK",glycan array binding signal (z-score),[23],0.743
same,glycan array binding signal (z-score),Neu5Ac(a2-3)Gal(b1-4)Glc,0.821
same,glycan array binding signal (z-score),[24],-0.373
same,glycan array binding signal (z-score),[25],-0.035
